# Experimental data: paper PMC5784158, “New 2-Aryl-9-methyl-β-carbolinium salts as Potential Acetylcholinesterase Inhibitor agents: Synthesis, Bioactivity and Structure–Activity Relationship” (Scientific Reports, 2018)
# Amino acid sequences for entries named in this document (tags omitted). Residues count along the entry.
# UniProt Q7YWJ9, 81-659 limits assumed: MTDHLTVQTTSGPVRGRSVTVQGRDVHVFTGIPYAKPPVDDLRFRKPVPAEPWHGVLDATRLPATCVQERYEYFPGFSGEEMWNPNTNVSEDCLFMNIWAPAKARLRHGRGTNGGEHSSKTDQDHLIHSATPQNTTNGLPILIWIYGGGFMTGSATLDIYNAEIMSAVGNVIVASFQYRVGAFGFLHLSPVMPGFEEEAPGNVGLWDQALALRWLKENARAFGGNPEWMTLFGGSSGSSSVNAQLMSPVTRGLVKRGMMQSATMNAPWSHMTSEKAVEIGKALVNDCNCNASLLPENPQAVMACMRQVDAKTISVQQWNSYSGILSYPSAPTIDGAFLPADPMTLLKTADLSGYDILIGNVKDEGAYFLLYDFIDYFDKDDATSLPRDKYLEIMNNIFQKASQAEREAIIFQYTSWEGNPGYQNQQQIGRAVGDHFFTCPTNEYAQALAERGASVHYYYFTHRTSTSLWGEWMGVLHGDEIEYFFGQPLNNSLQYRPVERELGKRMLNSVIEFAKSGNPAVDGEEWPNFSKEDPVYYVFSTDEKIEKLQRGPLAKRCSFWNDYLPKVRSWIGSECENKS
# Certain results were filed several times, with different values. This list holds those alone. There may be further records. The values listed for one entry do not match, cause unknown; dose, time, organism, isomer or construct need not be as stated for each record.
# Target: AChE (Musca domestica, UniProt Q7YWJ9)
# Conditions: tested form: bromide
compound,measurement,value
C1=[N+](c2ccccc2)CCc2c1[nH]c1ccccc21 [Compound A46],"SI: selectivity index, ratio IC50 (BuChE)/IC50 (AChE)",< 1 and 0.21
